These are yes or no findings as the source states them, for the method shown. Binding seen in cells or lysates may run through a third protein. Some entries that bind do so weakly or less than the wild type.
T1: LIPH (Lipase H), full-length human cDNA overexpressed (OE-LIPH) (human) (UniProt Q8WWY8)
T1 sequence: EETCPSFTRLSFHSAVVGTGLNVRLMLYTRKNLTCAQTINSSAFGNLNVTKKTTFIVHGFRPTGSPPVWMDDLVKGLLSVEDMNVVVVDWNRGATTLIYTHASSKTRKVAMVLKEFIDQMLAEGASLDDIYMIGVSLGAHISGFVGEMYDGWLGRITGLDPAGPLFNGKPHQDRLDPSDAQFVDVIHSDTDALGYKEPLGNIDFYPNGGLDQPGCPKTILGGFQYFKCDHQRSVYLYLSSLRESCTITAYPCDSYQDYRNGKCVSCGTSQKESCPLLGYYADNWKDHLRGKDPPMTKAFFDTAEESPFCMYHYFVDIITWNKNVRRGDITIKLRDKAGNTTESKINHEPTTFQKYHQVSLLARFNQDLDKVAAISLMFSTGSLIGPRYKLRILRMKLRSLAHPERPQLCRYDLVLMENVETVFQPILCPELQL

T2: aldolase A (ALDOA) (human (endogenous in MIA PaCa-2)) (UniProt P04075)
T2 sequence: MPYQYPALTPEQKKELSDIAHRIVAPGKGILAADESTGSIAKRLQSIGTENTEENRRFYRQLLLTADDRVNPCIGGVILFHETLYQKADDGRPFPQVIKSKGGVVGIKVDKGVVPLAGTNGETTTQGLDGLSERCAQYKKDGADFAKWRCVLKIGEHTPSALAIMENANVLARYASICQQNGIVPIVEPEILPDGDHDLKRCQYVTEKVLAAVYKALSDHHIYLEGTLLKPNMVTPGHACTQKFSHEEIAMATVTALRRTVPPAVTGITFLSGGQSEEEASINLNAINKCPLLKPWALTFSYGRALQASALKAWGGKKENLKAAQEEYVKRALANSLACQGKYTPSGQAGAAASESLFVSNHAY

B1: aldolase A (ALDOA) (enzyme, UniProt P04075 1-364)
chain: T2 sequence
B2: UBE2O, an E2/E3 hybrid ubiquitin-protein ligase (enzyme, UniProt Q9C0C9 1-1292)
chain: MADPAAPTPAAPAPAQAPAPAPEAVPAPAAAPVPAPAPASDSASGPSSDSGPEAGSQRLLFSHDLVSGRYRGSVHFGLVRLIHGEDSDSEGEEEGRGSSGCSEAGGAGHEEGRASPLRRGYVRVQWYPEGVKQHVKETKLKLEDRSVVPRDVVRHMRSTDSQCGTVIDVNIDCAVKLIGTNCIIYPVNSKDLQHIWPFMYGDYIAYDCWLGKVYDLKNQIILKLSNGARCSMNTEDGAKLYDVCPHVSDSGLFFDDSYGFYPGQVLIGPAKIFSSVQWLSGVKPVLSTKSKFRVVVEEVQVVELKVTWITKSFCPGGTDSVSPPPSVITQENLGRVKRLGCFDHAQRQLGERCLYVFPAKVEPAKIAWECPEKNCAQGEGSMAKKVKRLLKKQVVRIMSCSPDTQCSRDHSMEDPDKKGESKTKSEAESASPEETPDGSASPVEMQDEGAEEPHEAGEQLPPFLLKEGRDDRLHSAEQDADDEAADDTDDTSSVTSSASSTTSSQSGSGTSRKKSIPLSIKNLKRKHKRKKNKITRDFKPGDRVAVEVVTTMTSADVMWQDGSVECNIRSNDLFPVHHLDNNEFCPGDFVVDKRVQSCPDPAVYGVVQSGDHIGRTCMVKWFKLRPSGDDVELIGEEEDVSVYDIADHPDFRFRTTDIVIRIGNTEDGAPHKEDEPSVGQVARVDVSSKVEVVWADNSKTIILPQHLYNIESEIEESDYDSVEGSTSGASSDEWEDDSDSWETDNGLVEDEHPKIEEPPIPPLEQPVAPEDKGVVISEEAATAAVQGAVAMAAPMAGLMEKAGKDGPPKSFRELKEAIKILESLKNMTVEQLLTGSPTSPTVEPEKPTREKKFLDDIKKLQENLKKTLDNVAIVEEEKMEAVPDVERKEDKPEGQSPVKAEWPSETPVLCQQCGGKPGVTFTSAKGEVFSVLEFAPSNHSFKKIEFQPPEAKKFFSTVRKEMALLATSLPEGIMVKTFEDRMDLFSALIKGPTRTPYEDGLYLFDIQLPNIYPAVPPHFCYLSQCSGRLNPNLYDNGKVCVSLLGTWIGKGTERWTSKSSLLQVLISIQGLILVNEPYYNEAGFDSDRGLQEGYENSRCYNEMALIRVVQSMTQLVRRPPEVFEQEIRQHFSTGGWRLVNRIESWLETHALLEKAQALPNGVPKASSSPEPPAVAELSDSGQQEPEDGGPAPGEASQGSDSEGGAQGLASASRDHTDQTSETAPDASVPPSVKPKKRRKSYRSFLPEKSGYPDIGFPLFPLSKGFIKSIRGVLTQFRAALLEAGMPECTEDK

Experiments:
[1] = molecular target: T1, LIPH (Lipase H), full-length human cDNA overexpressed (OE-LIPH) (human); test: co-IP; lysates in IGEPAL CA-630 buffer, FLAG antibody and protein A/G beads overnight at 4 °C, immunoblot for ALDOA; MIA PaCa-2 cells with NC or OE-LIPH vector
[2] = molecular target: T2, aldolase A (ALDOA) (human (endogenous in MIA PaCa-2)); test: co-IP; lysates in IGEPAL CA-630 buffer, ALDOA antibody and protein A/G beads overnight at 4 °C, immunoblot; MIA PaCa-2 cells transfected with the NC or OE-LIPH vectors

Binder | binding [1] | binding [2]
B1 | binds | –
B2 | – | binds
